## Drug screen on melanoma cell lines: cell count

Source: doi:10.1371/journal.pone.0140310, primary screening data, rounded.

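Human melanoma cells were exposed to a pair of drugs for 72 h in 1,536-well plates and read by automated microscopy after fixing and staining. Values are the number of DAPI-stained nuclei as a percentage of the DMSO control: 100 is no effect, lower means fewer cells. Every drug was used at one fixed concentration, the lower of two screened (a fifth of the higher). The file gives one value for each pair and line, without errors, so small differences may be noise.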 An unselected part of the screen is shown.

Drug key:
NVP-BEZ235: Cn1c(=O)n(-c2ccc(C(C)(C)C#N)cc2)c2c3cc(-c4cnc5ccccc5c4)ccc3ncc21 at 0.004 µM
pioglitazone: CCc1ccc(CCOc2ccc(CC3SC(=O)NC3=O)cc2)nc1 (stereo not given) at 2 µM
A-769662: N#Cc1c(O)c2c(-c3ccc(-c4ccccc4O)cc3)csc2[nH]c1=O at 2 µM
fludarabine: Nc1nc(F)nc2c1ncn2[C@@H]1O[C@H](CO)[C@@H](O)[C@@H]1O at 0.2 µM
everolimus: CO[C@H]1C[C@@H]2CC[C@@H](C)[C@@](O)(O2)C(=O)C(=O)N2CCCC[C@H]2C(=O)O[C@H]([C@H](C)C[C@@H]2CC[C@@H](OCCO)[C@H](OC)C2)CC(=O)[C@H](C)/C=C(\C)[C@@H](O)[C@@H](OC)C(=O)[C@H](C)C[C@H](C)/C=C/C=C/C=C/1C at 0.02 µM
ENMD-2076: Cc1cc(Nc2cc(N3CCN(C)CC3)nc(/C=C/c3ccccc3)n2)n[nH]1 at 0.04 µM
cediranib: COc1cc2c(Oc3ccc4[nH]c(C)cc4c3F)ncnc2cc1OCCCN1CCCC1 at 0.4 µM
CHIR-265: Cn1c(Nc2ccc(C(F)(F)F)cc2)nc2cc(Oc3ccnc(-c4ncc(C(F)(F)F)[nH]4)c3)ccc21 at 0.08 µM
OSI-906: C[C@]1(O)C[C@@H](c2nc(-c3ccc4ccc(-c5ccccc5)nc4c3)c3c(N)nccn32)C1 at 0.4 µM

| Drugs | COLO 829 |
|---|---|
| NVP-BEZ235 and CHIR-265 | 95.8 |
| NVP-BEZ235 and ENMD-2076 | 99.9 |
| OSI-906 and NVP-BEZ235 | 102 |
| ENMD-2076 and fludarabine | 102 |
| everolimus and pioglitazone | 53.6 |
| fludarabine and cediranib | 125 |
| fludarabine and A-769662 | 109 |
| CHIR-265 and pioglitazone | 106 |
| CHIR-265 and A-769662 | 82.1 |
| NVP-BEZ235 and A-769662 | 90.6 |
| ENMD-2076 and A-769662 | 74.5 |
| ENMD-2076 and cediranib | 84.5 |
| pioglitazone and cediranib | 115 |
| fludarabine and NVP-BEZ235 | 83.4 |
| ENMD-2076 and CHIR-265 | 74.0 |
| everolimus and CHIR-265 | 71.2 |
| everolimus and fludarabine | 80.0 |
| everolimus and OSI-906 | 66.9 |
| pioglitazone and ENMD-2076 | 86.8 |
| everolimus and cediranib | 86.8 |
| OSI-906 and ENMD-2076 | 75.9 |
| fludarabine and OSI-906 | 93.4 |
| A-769662 and pioglitazone | 105 |
| ENMD-2076 and everolimus | 73.6 |
| A-769662 and OSI-906 | 98.9 |
| A-769662 and cediranib | 93.4 |
| CHIR-265 and OSI-906 | 96.1 |
| cediranib and NVP-BEZ235 | 97.5 |
| cediranib and OSI-906 | 117 |
| everolimus and A-769662 | 70.5 |
| fludarabine and CHIR-265 | 102 |
| pioglitazone and NVP-BEZ235 | 73.5 |
| pioglitazone and OSI-906 | 165 |

The first 2 entries again:

* NVP-BEZ235 and CHIR-265 : COLO 829: 95.8
* NVP-BEZ235 and ENMD-2076 : COLO 829: 99.9